The list shows only some results of the screen, not a fair sample: it is rich in T/C values a quarter to a half above the control, in often repeated tests (any T/C) and in doses without a T/C. Further doses and runs are listed elsewhere. T/C is the treated group as % of the vehicle group. Some doses have a count of surviving animals in place of a T/C: the source holds a T/C of zero for them, seemingly a mark for toxic or unscored doses. Some survivor counts are full or nearly so, which does not show that the dose was tolerated: the source hardly ever lists a survival T/C far under the control, and the zero likely stands for such cases as well. Counts of survivors are from the toxicity check (mostly the fifth day) where no day follows; animals may have died later. Schedule codes are those of the source, taken here to give the interval after Q, in days (D) or hours (H), and the number of doses after X. Some doses were run more than once; their values stand side by side, smallest first. Where survival is the endpoint, this PubChem deposit counts one and a half times the control or more as active, and values a quarter to a half above the control carry no call in these data; other NCI protocols may use other cut-offs. Some T/C values carry the count of animals alive at the toxicity check (mostly the fifth day); where none is given, no animal had died by that day.
Tested on: CD2F1 mice, L1210 leukemia ip, survival T/C
Experiment: NCI In Vivo Anticancer Drug Screen. Data for tumor model L1210 Leukemia (intraperitoneal) in CD2F1 (CDF1) mice
Settings: higher T/C = longer survival
Outline: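 Implant tumor; dose compound or vehicle; measure endpoint in both groups; report treated divided by control.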

[1] = T/C endpoint: mean survival time, dose: 50.0 mg/kg/injection, schedule: Q01DX009 (ip), vehicle: saline with Tween-80
[2] = T/C endpoint: mean survival time, dose: 200.0 mg/kg/injection, schedule: Q04DX003 (ip), vehicle: saline with Tween-80
[3] = T/C endpoint: mean survival time, dose: 400.0 mg/kg/injection, schedule: Q04DX003 (ip), vehicle: saline with Tween-80
[4] = T/C endpoint: mean survival time, dose: 100.0 mg/kg/injection, schedule: Q01DX009 (ip), vehicle: saline with Tween-80
[5] = T/C endpoint: mean survival time, dose: 400.0 mg/kg/injection, schedule: Q01DX009 (ip), vehicle: saline with Tween-80
[6] = T/C endpoint: mean survival time, dose: 400.0 mg/kg/injection, schedule: Q01DX001 (ip), vehicle: saline with Tween-80
[7] = T/C endpoint: mean survival time, dose: 200.0 mg/kg/injection, schedule: Q01DX009 (ip), vehicle: saline with Tween-80
[8] = T/C endpoint: median survival time, dose: 200.0 mg/kg/injection, schedule: Q01DX005 (ip), vehicle: saline with Tween-80

CSc1ncnc2c1nnn2C1OC(COC(C)=O)C(OC(C)=O)C1OC(C)=O (centres undefined)
T/C (T/C endpoint: mean survival time, dose: 25.0 mg/kg/injection, schedule: Q01DX009 (ip), vehicle: DMSO): 125 % of control | T/C (T/C endpoint: mean survival time, dose: 50.0 mg/kg/injection, schedule: Q01DX009 (ip), vehicle: DMSO): 135 % of control | T/C (T/C endpoint: mean survival time, dose: 100.0 mg/kg/injection, schedule: Q01DX009 (ip), vehicle: DMSO): 144 % of control [4 of 6 alive] | T/C (T/C endpoint: mean survival time, dose: 200.0 mg/kg/injection, schedule: Q01DX009 (ip), vehicle: DMSO): 147 % of control

O=C(Nc1c[nH]c(=O)[nH]c1=O)C(Cl)Cl
survivor count (T/C endpoint: mean survival time, dose: 400.0 mg/kg/injection, schedule: Q04DX003 (ip), vehicle: other): 2 of 6

CN(Cc1cnc2nc(N)nc(N)c2n1)c1ccc(C(=O)NC(CCC(=O)O)C(=O)NC(CC(=O)O)C(=O)O)cc1 (centres undefined)
T/C (T/C endpoint: mean survival time, dose: 10.0 mg/kg/injection, schedule: Q01DX009 (ip), vehicle: sodium bicarbonate): 132 % of control | T/C (T/C endpoint: mean survival time, dose: 25.0 mg/kg/injection, schedule: Q01DX009 (ip), vehicle: sodium bicarbonate): 147 % of control

COC1/C=C/C=C(/C)Cc2cc(O)c(Cl)c(c2)N(C)C(=O)CC(OC(=O)C(C)C)C2(C)OC2C(C)C2CC1(O)NC(=O)O2 (centres undefined)
T/C (T/C endpoint: mean survival time, dose: 0.25 mg/kg/injection, schedule: Q01DX009 (ip), vehicle: saline + alcohol): 127 % of control | survivor count (T/C endpoint: mean survival time, dose: 4.0 mg/kg/injection, schedule: Q01DX009 (ip), vehicle: saline + alcohol): 3 of 6 | T/C (T/C endpoint: median survival time, dose: 0.25 mg/kg/injection, schedule: Q01DX009 (ip), vehicle: saline + alcohol): 126 % of control | survivor count (T/C endpoint: median survival time, dose: 4.0 mg/kg/injection, schedule: Q01DX009 (ip), vehicle: saline + alcohol): 10 of 10

N#CC1CCCC1=N (centres undefined)
survivor count [1]: 6 of 6 | survivor count (T/C endpoint: mean survival time, dose: 100.0 mg/kg/injection, schedule: Q04DX003 (ip), vehicle: saline with Tween-80): 3 of 6 | survivor count [2]: 0 of 6 | survivor count [3]: 0 of 6

O=S(=O)(C1CCCCC1)N1N=NC2CCCCC21 (centres undefined)
survivor count [3]: 2 of 6

CCCCNC(C)(C)C(SSC(c1ccc(Cl)cc1)C(C)(C)NCCCC)c1ccc(Cl)cc1 (centres undefined)
survivor count [1]: 5 of 6 | survivor count [4]: 3 of 6 | survivor count [2]: 5 of 6 | survivor count [3]: 0 of 6

NS(=O)(=O)c1cc([N+](=O)[O-])ccc1Cl
survivor count [5]: 1 of 6

O=c1[nH]cc(N(CCCl)CCCl)c(=O)[nH]1
T/C (T/C endpoint: mean survival time, dose: 0.39 mg/kg/injection, schedule: Q01DX009 (ip), vehicle: saline): 128 % of control | T/C (T/C endpoint: mean survival time, dose: 0.65 mg/kg/injection, schedule: Q01DX009 (ip), vehicle: saline): 139 % of control | T/C (T/C endpoint: mean survival time, dose: 1.1 mg/kg/injection, schedule: Q01DX001 (ip), vehicle: saline): 130 % of control | T/C (T/C endpoint: mean survival time, dose: 1.8 mg/kg/injection, schedule: Q01DX001 (ip), vehicle: saline): 147 % of control | survivor count (T/C endpoint: mean survival time, dose: 3.0 mg/kg/injection, schedule: Q01DX009 (ip), vehicle: saline): 10 of 10 | T/C (T/C endpoint: mean survival time, dose: 3.0 mg/kg/injection, schedule: Q04DX003 (ip), vehicle: saline): 140 % of control | survivor count (T/C endpoint: mean survival time, dose: 14.0 mg/kg/injection, schedule: Q01DX001 (ip), vehicle: saline): 9 of 10

C=CCN(N=O)C(=O)OCC
survivor count (T/C endpoint: mean survival time, dose: 200.0 mg/kg/injection, schedule: Q01DX009 (ip), vehicle: other): 3 of 6

O=C(N1CCOCC1)C1(c2ccccc2)CCNCC1
survivor count (T/C endpoint: mean survival time, dose: 200.0 mg/kg/injection, schedule: Q01DX009 (ip), vehicle: saline): 0 of 6

COc1ccccc1NC1=NCCO1
survivor count (T/C endpoint: mean survival time, dose: 200.0 mg/kg/injection, schedule: Q01DX001 (ip), vehicle: saline with Tween-80): 1 of 6 | survivor count [6]: 0 of 6

CN(Cc1ccccc1)Cc1ccccc1
survivor count (T/C endpoint: mean survival time, dose: 400.0 mg/kg/injection, schedule: Q04DX002 (ip), vehicle: saline): 1 of 3

C1=C\CCCCCCCC/1
survivor count [4]: 1 of 6 | survivor count [7]: 1 of 6 | survivor count [2]: 2 of 6 | survivor count [5]: 0 of 6

CCc1ccc(C(=O)O)cc1S(=O)(=O)Cl
survivor count [2]: 0 of 6 | survivor count [3]: 2 of 6

CC[n+]1ccc(Nc2ccc(NC(=O)c3ccc(C(=O)Nc4ccc(Nc5cc[n+](CC)c(N)n5)cc4)cc3)cc2)nc1N
T/C (T/C endpoint: mean survival time, dose: 6.25 mg/kg/injection, schedule: Q01DX009 (ip), vehicle: saline): 131 % of control | T/C (T/C endpoint: mean survival time, dose: 67.0 mg/kg/injection, schedule: Q01DX001 (ip), vehicle: Klucel (hydroxypropylcellulose) (HPC)): 131 % of control | T/C (T/C endpoint: mean survival time, dose: 100.0 mg/kg/injection, schedule: Q01DX001 (ip), vehicle: Klucel (hydroxypropylcellulose) (HPC)): 131 % of control | T/C (T/C endpoint: mean survival time, dose: 100.0 mg/kg/injection, schedule: Q01DX009 (ip), vehicle: saline): 139 % of control | T/C (T/C endpoint: mean survival time, dose: 133.0 mg/kg/injection, schedule: Q01DX009 (ip), vehicle: saline): 135 % of control [5 of 6 alive]

Cc1cc(OC(=O)N2CCCCC2)c(C(C)C)cc1[N+](C)(C)C
survivor count (T/C endpoint: mean survival time, dose: 0.13 mg/kg/injection, schedule: Q01DX009 (ip), vehicle: saline): 2 of 6 | survivor count (T/C endpoint: mean survival time, dose: 0.25 mg/kg/injection, schedule: Q01DX009 (ip), vehicle: saline): 3 of 6 | survivor count (T/C endpoint: mean survival time, dose: 0.5 mg/kg/injection, schedule: Q04DX003 (ip), vehicle: saline with Tween-80): 3 of 6 | survivor count (T/C endpoint: mean survival time, dose: 1.0 mg/kg/injection, schedule: Q04DX003 (ip), vehicle: saline with Tween-80): 0 of 6 | survivor count (T/C endpoint: mean survival time, dose: 2.0 mg/kg/injection, schedule: Q04DX003 (ip), vehicle: saline with Tween-80): 0 of 6

CC#CC#CC(=O)c1ccccc1
survivor count (T/C endpoint: mean survival time, dose: 20.0 mg/kg/injection, schedule: Q01DX001 (ip), vehicle: saline): 2 of 6 | survivor count (T/C endpoint: mean survival time, dose: 40.0 mg/kg/injection, schedule: Q01DX001 (ip), vehicle: saline): 0 of 6 | survivor count (T/C endpoint: mean survival time, dose: 80.0 mg/kg/injection, schedule: Q01DX001 (ip), vehicle: saline): 0 of 6

CC(=O)Nc1ccc([N+](=O)[O-])c(C(F)(F)F)c1
survivor count [3]: 2 of 6

[Br][Pt+2][Br].[NH-]C(c1ccccc1)C([NH-])c1ccccc1 (centres undefined)
T/C (T/C endpoint: mean survival time, dose: 25.0 mg/kg/injection, schedule: Q04DX003 (ip), vehicle: saline with Tween-80): 128 % of control | T/C (T/C endpoint: mean survival time, dose: 50.0 mg/kg/injection, schedule: Q04DX003 (ip), vehicle: saline with Tween-80): 137 % of control

O=C1c2ccccc2C(=O)c2c(NCCN3CCCCC3)ccc(NCCN3CCCCC3)c21
survivor count (T/C endpoint: mean survival time, dose: 128.0 mg/kg/injection, schedule: Q01DX009 (ip), vehicle: acid diluted with saline): 0 of 6

C[N+](C)(C)/N=C/C=C/c1ccccc1
survivor count [4]: 1 of 3 | survivor count [7]: 0 of 3

CCCCCCCCCCCCCCCC[N+]1(CCC)CCSCC1
survivor count [6]: 0 of 6

COc1cc2c(cc1O)C(C)NCC2 (centres undefined)
survivor count (T/C endpoint: mean survival time, dose: 300.0 mg/kg/injection, schedule: Q01DX001 (ip), vehicle: saline): 1 of 6

N#Cc1c(N)[nH]c2ccc(Sc3ccccc3)cc12
T/C (T/C endpoint: median survival time, dose: 72.0 mg/kg/injection, schedule: Q01DX005 (ip), vehicle: saline with Tween-80): 125 and 135 % of control | T/C (T/C endpoint: median survival time, dose: 100.0 mg/kg/injection, schedule: Q01DX005 (ip), vehicle: saline with Tween-80): 135 % of control [5 of 6 alive] | T/C [8]: 146 % of control [5 of 6 alive] | survivor count [8]: 3 of 6 | survivor count (T/C endpoint: median survival time, dose: 333.0 mg/kg/injection, schedule: Q01DX005 (ip), vehicle: saline with Tween-80): 0 of 6 and 1 of 6

C1=C[S+](c2ccccc2)C(c2ccccc2)c2ccccc21 (centres undefined)
survivor count (T/C endpoint: mean survival time, dose: 50.0 mg/kg/injection, schedule: Q04DX002 (ip), vehicle: Klucel (hydroxypropylcellulose) (HPC)): 4 of 6

CCCCCCCCCCCCOC(=O)C[n+]1cccc(C(=O)Nc2ccc(Cl)cc2)c1
survivor count [4]: 3 of 6 | survivor count [2]: 1 of 6 | survivor count [3]: 0 of 6

C=CCOP(=O)(OCC=C)C1(Cl)C(Cl)=C(Cl)C(=O)C(Cl)=C1Cl
survivor count [7]: 1 of 6 | survivor count [5]: 0 of 6

NC(=O)c1csc(C2OC(CO)CC2O)n1 (centres undefined)
T/C (T/C endpoint: median survival time, dose: 1000.0 mg/kg/injection, schedule: Q01DX005 (ip), vehicle: water): 128 % of control

N#CC(C#N)=C/C=C/c1cccc([N+](=O)[O-])c1
survivor count (T/C endpoint: mean survival time, dose: 25.0 mg/kg/injection, schedule: Q01DX009 (ip), vehicle: Klucel (hydroxypropylcellulose) (HPC)): 2 of 6 | survivor count (T/C endpoint: mean survival time, dose: 50.0 mg/kg/injection, schedule: Q01DX009 (ip), vehicle: Klucel (hydroxypropylcellulose) (HPC)): 0 of 6
